This is an account of results in paper PMC10217904.

These are yes or no findings as the source states them, for the method shown. For some assays here: Binding can be weak; no strength is given. Sequences can lack the tags named with a protein. For some assays here: Binding seen in cells or lysates may run through a third protein.

Experiment [1] has as its target T1, Arabidopsis prohibitin 3 (PHB3) in pGBKT7 (BD, bait) (Arabidopsis) (UniProt O04331).
T1 sequence: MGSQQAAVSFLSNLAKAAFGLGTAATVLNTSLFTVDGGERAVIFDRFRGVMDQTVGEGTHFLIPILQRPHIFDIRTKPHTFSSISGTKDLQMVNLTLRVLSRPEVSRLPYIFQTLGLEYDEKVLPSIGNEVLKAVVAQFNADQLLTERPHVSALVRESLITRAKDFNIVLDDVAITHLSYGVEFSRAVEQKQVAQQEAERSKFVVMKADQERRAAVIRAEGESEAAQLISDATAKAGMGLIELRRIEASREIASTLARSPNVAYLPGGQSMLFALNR
Description: two-hybrid; bait in pGBKT7 (BD), prey in pGADT7 (AD), cotransformed into yeast Y2H Gold; growth on DDO, QDO and QDO/X-α-Gal media.

The target in experiment [2] is F1-ATPase subunit β (ATPβ) in pGBKT7 (BD, bait) (Arabidopsis). Described as above.
The target of experiment [3] is F1-ATPase subunit δ (ATPδ) in pGBKT7 (BD, bait) (Arabidopsis). The experiment is described as above.
Experiment [4] concerns the target cLUC-ATPβ (Arabidopsis). Kind of experiment: split reporter; luciferase complementation imaging (LCI): nLUC and cLUC fusions co-infiltrated 1:1 into N. benthamiana leaves, imaged 48 h after infiltration with 1 mM luciferin.
In experiment [5] the target is cLUC-ATPδ (Arabidopsis). The description is as above.

As for “Fo-ATPase subunit a (ATPa) in pGADT7 (AD, prey) (Arabidopsis)”, the binding entry in experiment [1] is given as “no binding”.

B1: Arabidopsis prohibitin 3 (PHB3) in pGADT7 (AD, prey) (protein, UniProt O04331 1-277)
chain: MGSQQAAVSFLSNLAKAAFGLGTAATVLNTSLFTVDGGERAVIFDRFRGVMDQTVGEGTHFLIPILQRPHIFDIRTKPHTFSSISGTKDLQMVNLTLRVLSRPEVSRLPYIFQTLGLEYDEKVLPSIGNEVLKAVVAQFNADQLLTERPHVSALVRESLITRAKDFNIVLDDVAITHLSYGVEFSRAVEQKQVAQQEAERSKFVVMKADQERRAAVIRAEGESEAAQLISDATAKAGMGLIELRRIEASREIASTLARSPNVAYLPGGQSMLFALNR
On to B1, for which the binding result in experiment [2] and in experiment [3] was “binds” each time.

B2: nLUC-PHB3 (protein, UniProt O04331 1-277)
chain: MGSQQAAVSFLSNLAKAAFGLGTAATVLNTSLFTVDGGERAVIFDRFRGVMDQTVGEGTHFLIPILQRPHIFDIRTKPHTFSSISGTKDLQMVNLTLRVLSRPEVSRLPYIFQTLGLEYDEKVLPSIGNEVLKAVVAQFNADQLLTERPHVSALVRESLITRAKDFNIVLDDVAITHLSYGVEFSRAVEQKQVAQQEAERSKFVVMKADQERRAAVIRAEGESEAAQLISDATAKAGMGLIELRRIEASREIASTLARSPNVAYLPGGQSMLFALNR
Take B2: the binding result in experiment [4] and in experiment [5] was “binds” each time.
